# Experimental data from patent US10112935B2, “Indazolyl thiadiazolamines and related compounds for inhibition of Rho-associated protein kinase and the treatment of disease” (Lycera Corporation, priority 2015, dated 2018).
# The chains behind the UniProt entries cited, without tags or fusion partners. Residues count along the entry.
# UniProt O75116, 1-553: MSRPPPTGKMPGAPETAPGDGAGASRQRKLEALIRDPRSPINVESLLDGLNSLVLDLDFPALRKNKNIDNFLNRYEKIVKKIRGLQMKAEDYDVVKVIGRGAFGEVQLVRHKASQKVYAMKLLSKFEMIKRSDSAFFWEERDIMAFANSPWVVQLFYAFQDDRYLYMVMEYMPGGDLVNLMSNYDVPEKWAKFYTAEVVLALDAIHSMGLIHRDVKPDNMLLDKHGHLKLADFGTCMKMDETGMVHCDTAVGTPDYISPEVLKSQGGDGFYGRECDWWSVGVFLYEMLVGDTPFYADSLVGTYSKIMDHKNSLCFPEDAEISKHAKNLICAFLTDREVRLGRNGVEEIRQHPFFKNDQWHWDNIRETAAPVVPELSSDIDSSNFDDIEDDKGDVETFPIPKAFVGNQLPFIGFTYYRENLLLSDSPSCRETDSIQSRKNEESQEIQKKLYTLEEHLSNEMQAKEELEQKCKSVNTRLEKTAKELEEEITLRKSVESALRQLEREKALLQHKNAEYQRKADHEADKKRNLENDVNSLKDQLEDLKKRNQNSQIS
# At least one compound was matched to its structure with a doubt left.
# Target: GST-tagged human ROCK2 catalytic domain 1-553 (Homo sapiens (Human), UniProt O75116)
# Assay: Inhibition of Rho-associated protein kinase isoform 2 (LANCE Ultra ULight-CREBtide FRET kinase assay)
# Assay type: biochemical
# Conditions: selectivity ROCK2 vs ROCK1
# Method: Exemplary compounds were tested for ability to inhibit Rho-associated protein kinase isoform 1 (ROCK1) and Rho-associated protein kinase isoform 2 (ROCK2). Assay procedures and results are described below.
# Protein constructs were purified from a baculovirus expression system. The peptide substrate was fluorescent LANCE® Ultra ULight-CREBtide: […] (PerkinElmer, # TRF0107-D). […] After a 90 minute incubation at room temperature on a shaker table, the kinase reaction was stopped by addition of 10 mM EDTA, and phosphorylation of the substrate was detected by adding 1 nM LANCE® Ultra Europium-anti-phospho-CREB (ser133) antibody (PerkinElmer, # TRF0200-D) and incubating for 60 minutes on a shaker at room temperature. The flurorescence resonance energy transfer (FRET) signals were read and analyzed on an Envision™ 2103 Multilabel Reader (Perkin Elmer).
smiles,measurement,value
Cc1cn2cccc(-c3nnc(Nc4ccc5[nH]ncc5c4Cl)s3)c2n1 [Example 52A],Selectivity for ROCK2 over ROCK1 (IC50 ROCK1 / IC50 ROCK2),>5
